Measured values reported in US5087620A, “Controlled dermal penetration enhancement using imidazoles” (Bristol-Myers Squibb Co., priority 1990, dated 1992).

Experiment: In vitro skin penetration study, excised human skin, Franz diffusion cells (Example 1A-1C)
Type: in vitro ADME
Protocol: The following test method may be employed with human skin to determine topical penetration of pharmacologically active steroids used in the practice of this invention. The procedure is also applicable to pig skin and rat skin. Normal excised human skin samples obtained from breast reduction were used. Appropriate size specimens were frozen on the microtome with carbon dioxide and sectioned to a layer around 200 micrometers thick and stored in normal saline at 5° C. The skin sections were mounted on 9 mm inside diameter flat-top Franz diffusion cells. The diffusional cross-sectional area of the skin was 0.636 cm^2. […] Water at 37.4° C. was circulated throughout the water jacket of the diffusion cell. A 100 microliter sample was withdrawn from the receiver compartment at appropriate intervals and analyzed for drug content by HPLC. The receptor fluid was replenished with normal saline after each withdrawal. All the receptor fluid and replenished fluid were thoroughly degassed before use. The compositions shown below were prepared and tested utilizing the above described test procedure for human skin (in vitro). The results obtained, are shown in FIG. 1 and recorded in Table 1.

Q: With Clc1ccc(CSC(Cn2ccnc2)c2ccc(Cl)cc2Cl)cc1 (stereo not shown) [SNO3, sulconazole nitrate] as the compound, how does the “penetration through the entire skin thickness (speed)” value read?
A: more rapid
